The filed quantity is “Percent Effect” (%). The controls that fix the scale are not given in the record; negative values are as filed. This is an unselected part of the compounds tested.

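Assay of Toxoplasma gondii numbers, read through their beta-galactosidase reporter with a colour substrate. Concentration: 50 µM. The record gives no direction; the compounds picked for IC50 retests had high values, so higher reads as fewer parasites. About 18,000 compounds were tested under these conditions; 0.94% (about 170) showed 50% or more at least once.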

Result for CCCn1nnnc1CSCc1ccccn1 was -22.28%. Result for CC(C(=O)Nc1nc2c(s1)CCCC2)n1cncn1 (centres undefined) was -2.143%. With CCC1CN(CCn2cccn2)CCN1 (centres undefined) the screen gave 27.22%. For CCc1csc(S(N)(=O)=O)n1 the result was -14.62%. O=C(NCc1cc[nH]n1)N1CCc2sccc2C1 read 2.227%. Result for CCc1cncc(C)n1 was -0.1752%.

Result for OCCNC1COC1 was 1.029%. With CCc1nncn1C1CCNCC1 the screen gave -3.048%. CC1c2ccsc2CCN1C(=O)c1ccn(C)c(=O)c1 (centres undefined) read -4.023%. For CN(C)[C@@H]1CN(C(=O)c2nccn2C)CC[C@@H]1CO the result was -59.59%. NS(=O)(=O)Cc1cccc(NC(=O)N2CCSCC2)c1 read 19%. CC1(C)CN(Cc2c[nH]cn2)CC[C@]1(C)O read 16.73%.

With Cc1n[nH]c(SCC(=O)NCCCN2CCOCC2)n1 the screen gave -6.704%. Result for CN(C)C(=O)CNC(=O)NCc1cc(F)ccc1Br was 41.22%. Result for c1cn2c(n1)CCCC2 was 2.523%. N[C@H]1C[C@@H](c2cc(NCCc3ccco3)ncn2)C1 read -8.382%. CN(C)S(=O)(=O)N1CCC(Oc2ccccc2Cl)CC1 gave -1.313%. Result for COCCC1NCc2ccccc21 (centres undefined) was -14.58%.

CC[C@H](CO)NCc1ccccc1 gave -3.686%. CCCc1ccc(C(=O)N2CCC(N)CC2)cc1 read -1.427%. Result for CC1(C)OC(=O)N(CCC#N)C1(C)O (centres undefined) was 10.39%. Result for OCc1cnn2c1CCCC2 was -5.143%. Cc1ccc(S(=O)(=O)Nc2cccc(C)n2)cc1 gave -4.494%. Result for COC(=O)CN(C(=O)c1ccc(Cl)cn1)C1CCCC1 was 8.931%.

With CC(=O)c1cnc2ccsc2c1 the screen gave 5.265%. NC(=O)C1CNc2ccccc21 (centres undefined) read -23.95%. Cc1ccnc(NCCn2ccnc2-c2ncc[nH]2)c1 read 7.036%. COCCOC(=O)N1CCN2CCNC(=O)C2C1 (centres undefined) gave 6.081%. Cc1ccc(C(C)NC(=O)CNC(=O)c2ccoc2)o1 (centres undefined) read 10.18%. Result for Cc1nc(C)c(C(=O)NC(C)(C)C)s1 was -2.909%.

CN(C)C1CCN(C(=O)CC2CCNCC2)CC1 read 3.492%. Result for CN(C)C(=O)C1(N)CCCC1 was 3.679%. Cc1cc(CC(=O)Nc2ncccc2Br)no1 read -2.042%. CNCC(=O)Nc1ccc(C)cc1C(=O)N(C)C gave -7.454%. For CCC(C)N1CCN(C(=O)c2cccs2)CC1 (centres undefined) the result was 8.61%. N#CCSCC(=O)NCc1ccccc1F read 3.725%.

For CNCc1nc(C(F)(F)F)cs1 the result was -4.264%. CN(CC(=O)N1CCNC1=O)Cc1ccc(Cl)s1 read -3.165%. With Cc1noc(CSCC(=O)NCc2ccccc2F)n1 the screen gave 0.1292%. For CCNS(=O)(=O)C1CCN(Cc2cccnc2C)C1 (centres undefined) the result was -1.376%. Result for CCNc1ncc(C(=O)NCCSCC2CC2)s1 was 11.75%. For CN(CCCOc1ccccc1)C(=O)C1CNC(=O)N1 (centres undefined) the result was -2.972%.

CCn1ccc(NC(=O)NCC(C)C)n1 read -63.48%. CN1CCN(S(=O)(=O)N2CCCC2)Cc2ccccc21 read -3.564%. O=C(CN1CCCC1)NCC1COc2ccccc2O1 (centres undefined) read 0.6432%.

For reference, 3 entries once more:

{"compound": "Cc1noc(CSCC(=O)NCc2ccccc2F)n1", "percent effect": 0.1292}
{"compound": "COCCC1NCc2ccccc21", "stereo": "centres undefined", "percent effect": -14.58}
{"compound": "CNCc1nc(C(F)(F)F)cs1", "percent effect": -4.264}

Source: ChEMBL document CHEMBL3988442, “University of Dundee, Small-Polar-MMV Screening Library” (2021).